Test results taken from PubChem BioAssay AID250 (DTP/NCI, 2004).
The list is a part of this screen's results and no random one: its compounds were picked by chemical class. Other doses and runs of a compound may be missing. T/C: endpoint of the treated group in % of that of the vehicle group. Where survival is the endpoint, this PubChem deposit counts one and a half times the control or more as active, and values a quarter to a half above the control carry no call in these data; other NCI protocols may use other cut-offs. Some T/C values are marked as having no survivor count here; that says nothing about deaths at the dose. Schedules are NCI's codes, read here as Q, the interval in days (D) or hours (H), X, the number of doses. Some schedules carry Z or #; the key to these is not given. Some entries hold several experiments; the results are listed from low to high.

Experiments:
[1] = test system: BDF1 mice, L1210 leukemia sc, survival T/C; assay: NCI In Vivo Anticancer Drug Screen. Data for tumor model L1210 Leukemia (subcutaneous) in B6D2F1 (BDF1) mice; conditions: T/C endpoint: median survival time, higher T/C = longer survival
Experimental: (§1) The antitumor activity of compounds was measured in mice bearing transplantable tumors. Survival or tumor size were measured and the results are expressed as the measurement made in the treated group (T) divided by the measurement made in the vehicle treated control group (C). The tumor model used in this assay is L1210 Leukemia (subcutaneous) in B6D2F1 (BDF1) mice

[2] = test system: BDF1 mice, L1210 leukemia sc; assay: as above; conditions: T/C endpoint: median survival time, schedule: Q01DX Z (sc), higher T/C = longer survival
Experimental: as §1

CN(CCCl)CCCl
T/C ([1]; dose: 0.06 mg/kg/injection, schedule: Q01DX009 (ip), vehicle: saline): 95 % of control [survivor count not shown] | T/C ([1]; dose: 0.12 mg/kg/injection, schedule: Q01DX009 (ip), vehicle: saline): 100 % of control [survivor count not shown] | T/C ([1]; dose: 0.23 mg/kg/injection, schedule: Q01DX Z (sc), vehicle: methylcellulose (MC)): 109 % of control [survivor count not shown] | T/C ([1]; dose: 0.25 mg/kg/injection, schedule: Q01DX009 (ip), vehicle: saline): 90 % of control [survivor count not shown] | T/C ([1]; dose: 0.39 mg/kg/injection, schedule: Q01DX Z (sc), vehicle: methylcellulose (MC)): 100 % of control [survivor count not shown] | T/C ([1]; dose: 0.39 mg/kg/injection, schedule: Q01DX Z (sc), vehicle: other): 100 % of control [survivor count not shown] | T/C ([1]; dose: 0.39 mg/kg/injection, schedule: Q01DX Z (sc), vehicle: saline): 104 % of control [survivor count not shown] | T/C ([1]; dose: 0.39 mg/kg/injection, schedule: Q01DX Z (sc), vehicle: water): 100 % of control [survivor count not shown] | T/C ([1]; dose: 0.47 mg/kg/injection, schedule: Q01DX Z (sc), vehicle: saline): 112 % of control [survivor count not shown] | T/C ([1]; dose: 0.5 mg/kg/injection, schedule: Q01DX009 (ip), vehicle: saline): 105 % of control [survivor count not shown] | T/C ([1]; dose: 0.5 mg/kg/injection, schedule: Q01DX009 (sc), vehicle: saline): 107 % of control [survivor count not shown] | T/C ([1]; dose: 0.65 mg/kg/injection, schedule: Q01DX Z (sc), vehicle: methylcellulose (MC)): 104 % of control [survivor count not shown] | T/C ([1]; dose: 0.65 mg/kg/injection, schedule: Q01DX Z (sc), vehicle: other): 100 % of control [survivor count not shown] | T/C ([1]; dose: 0.65 mg/kg/injection, schedule: Q01DX Z (sc), vehicle: saline): 100 % of control [survivor count not shown] | T/C ([1]; dose: 0.65 mg/kg/injection, schedule: Q01DX Z (sc), vehicle: water): 105 % of control [survivor count not shown] | T/C ([1]; dose: 1.0 mg/kg/injection, schedule: Q01DX009 (sc), vehicle: saline): 113 % of control [survivor count not shown] | T/C ([1]; dose: 1.08 mg/kg/injection, schedule: Q01DX Z (sc), vehicle: methylcellulose (MC)): 109 % of control [survivor count not shown] | T/C ([1]; dose: 1.08 mg/kg/injection, schedule: Q01DX Z (sc), vehicle: other): 105 % of control [survivor count not shown] | T/C ([1]; dose: 1.08 mg/kg/injection, schedule: Q01DX Z (sc), vehicle: saline): 109 [survivor count not shown] and 122 % of control [survivor count not shown] | T/C ([1]; dose: 1.08 mg/kg/injection, schedule: Q01DX Z (sc), vehicle: water): 105 % of control [survivor count not shown] | T/C ([1]; dose: 1.3 mg/kg/injection, schedule: Q01DX Z (iv), vehicle: saline): 118 % of control [survivor count not shown] | T/C ([1]; dose: 1.8 mg/kg/injection, schedule: Q01DX Z (sc), vehicle: methylcellulose (MC)): 113 % of control [survivor count not shown] | T/C ([1]; dose: 1.8 mg/kg/injection, schedule: Q01DX Z (sc), vehicle: other): 100 % of control [survivor count not shown] | T/C ([1]; dose: 1.8 mg/kg/injection, schedule: Q01DX Z (sc), vehicle: saline): 118 % of control [survivor count not shown] | T/C ([1]; dose: 1.8 mg/kg/injection, schedule: Q01DX Z (sc), vehicle: water): 110 % of control [survivor count not shown] | T/C ([1]; dose: 2.0 mg/kg/injection, schedule: Q01DX009 (sc), vehicle: saline): 116 % of control [survivor count not shown] | T/C ([1]; dose: 3.0 mg/kg/injection, schedule: Q01DX Z (sc), vehicle: methylcellulose (MC)): 118 % of control [survivor count not shown] | T/C ([1]; dose: 3.0 mg/kg/injection, schedule: Q01DX Z (sc), vehicle: other): 105 % of control [survivor count not shown] | T/C ([1]; dose: 3.0 mg/kg/injection, schedule: Q01DX Z (sc), vehicle: saline): 118 % of control [survivor count not shown] | T/C ([1]; dose: 4.0 mg/kg/injection, schedule: Q01DX009 (sc), vehicle: saline): 103 % of control [survivor count not shown] | T/C ([1]; dose: 5.0 mg/kg/injection, schedule: Q01DX Z (sc), vehicle: methylcellulose (MC)): 109 % of control [survivor count not shown] | T/C ([1]; dose: 5.0 mg/kg/injection, schedule: Q01DX Z (sc), vehicle: other): 110 % of control [survivor count not shown] | T/C ([1]; dose: 5.0 mg/kg/injection, schedule: Q01DX Z (sc), vehicle: saline): 118 % of control [survivor count not shown] | T/C ([1]; dose: 5.0 mg/kg/injection, schedule: Q01DX Z (sc), vehicle: water): 120 % of control [survivor count not shown] | T/C ([1]; dose: 6.0 mg/kg/injection, schedule: Q01DX Z (oral), vehicle: saline): 112 % of control [survivor count not shown] | T/C ([1]; dose: 8.0 mg/kg/injection, schedule: Q01DX009 (sc), vehicle: saline): 103 % of control [survivor count not shown] | T/C ([1]; dose: 8.4 mg/kg/injection, schedule: Q01DX Z (sc), vehicle: methylcellulose (MC)): 109 % of control [survivor count not shown] | T/C ([1]; dose: 8.4 mg/kg/injection, schedule: Q01DX Z (sc), vehicle: saline): 118 % of control [survivor count not shown] | T/C ([2]; dose: 1.3 mg/kg/injection, vehicle: saline): 125 % of control [survivor count not shown] | T/C ([2]; dose: 1.8 mg/kg/injection, vehicle: saline): 127 % of control [survivor count not shown] | T/C ([2]; dose: 2.16 mg/kg/injection, vehicle: saline): 125 % of control [survivor count not shown] | T/C ([2]; dose: 3.0 mg/kg/injection, vehicle: saline): 133 % of control [survivor count not shown] | T/C ([2]; dose: 3.0 mg/kg/injection, vehicle: water): 130 % of control [survivor count not shown]
